Reference: patent publication US8471035B1, “Two-photon absorbing arylamine-endcapped and dialkylfluorene-bridged benzobisthiazole compounds with high oleophilicity” (The United States of America as represented by the …, priority 2011, dated 2013)

Experiment: Femtosecond two-photon-induced fluorescence (TPIF) two-photon spectrum
Format: physicochemical
Conditions: THF solution (10^−5 M)

CC(C)CCCC(C)CCC1(CCC(C)CCCC(C)C)c2cc(-c3ccc(N(c4ccccc4)c4ccccc4)cc3)ccc2-c2ccc(-c3nc4cc5sc(-c6ccc7c(c6)C(CCC(C)CCCC(C)C)(CCC(C)CCCC(C)C)c6cc(-c8ccc(N(c9ccccc9)c9ccccc9)cc8)ccc6-7)nc5cc4s3)cc21 (centres unmarked) [AF-358-118, 2,6-Bis{4-diphenylaminophenyl-7-[9,9-bis(3,7-dimethyloctyl)]fluoren-2-yl}-benzo[1,2-d;4,5-d′]bisthiazole]
σ2′ value at 800 nm (TPIF) (800 nm): ~800 GM | peak σ2′ value (TPIF) (at ˜760 nm): 1,520 GM
